The text below walks through data of the supplement of paper PMC10849652.

Chains of the proteins cited; added tags and fusions are not shown. Lines headed by an entry give the natural chain unless they say otherwise; changes in a name come on top.
UniProt O95391: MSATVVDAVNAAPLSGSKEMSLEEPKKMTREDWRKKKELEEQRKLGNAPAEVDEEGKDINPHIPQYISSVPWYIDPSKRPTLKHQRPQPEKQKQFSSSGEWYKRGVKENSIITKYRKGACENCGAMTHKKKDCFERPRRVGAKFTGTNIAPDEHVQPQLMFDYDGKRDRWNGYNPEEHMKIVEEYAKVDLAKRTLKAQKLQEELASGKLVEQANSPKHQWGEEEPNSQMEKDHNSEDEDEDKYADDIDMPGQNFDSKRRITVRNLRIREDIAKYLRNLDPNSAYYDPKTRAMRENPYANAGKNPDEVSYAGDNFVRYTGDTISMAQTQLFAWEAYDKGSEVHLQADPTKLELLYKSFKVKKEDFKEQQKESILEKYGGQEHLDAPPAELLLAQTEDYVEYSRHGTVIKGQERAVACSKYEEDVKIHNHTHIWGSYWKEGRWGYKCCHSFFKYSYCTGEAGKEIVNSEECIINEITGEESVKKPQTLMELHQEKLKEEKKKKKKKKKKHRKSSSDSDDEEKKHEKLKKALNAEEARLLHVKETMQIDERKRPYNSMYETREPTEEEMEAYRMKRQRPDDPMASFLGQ
UniProt P08195: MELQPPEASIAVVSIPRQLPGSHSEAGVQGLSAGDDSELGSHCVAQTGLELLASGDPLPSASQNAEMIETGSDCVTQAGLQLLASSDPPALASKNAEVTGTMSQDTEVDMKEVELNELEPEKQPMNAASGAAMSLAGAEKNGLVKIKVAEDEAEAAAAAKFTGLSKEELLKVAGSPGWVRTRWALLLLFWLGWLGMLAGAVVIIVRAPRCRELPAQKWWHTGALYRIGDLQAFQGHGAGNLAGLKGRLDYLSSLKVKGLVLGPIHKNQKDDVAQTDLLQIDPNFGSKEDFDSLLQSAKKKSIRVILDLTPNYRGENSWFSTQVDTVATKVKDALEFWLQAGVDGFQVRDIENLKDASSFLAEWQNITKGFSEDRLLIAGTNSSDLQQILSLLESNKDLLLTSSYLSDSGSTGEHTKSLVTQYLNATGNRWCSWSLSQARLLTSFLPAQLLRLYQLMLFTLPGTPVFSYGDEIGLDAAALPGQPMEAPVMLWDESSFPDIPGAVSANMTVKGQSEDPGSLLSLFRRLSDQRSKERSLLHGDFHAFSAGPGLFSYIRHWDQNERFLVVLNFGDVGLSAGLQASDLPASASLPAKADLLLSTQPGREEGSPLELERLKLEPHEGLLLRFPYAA
UniProt P05141: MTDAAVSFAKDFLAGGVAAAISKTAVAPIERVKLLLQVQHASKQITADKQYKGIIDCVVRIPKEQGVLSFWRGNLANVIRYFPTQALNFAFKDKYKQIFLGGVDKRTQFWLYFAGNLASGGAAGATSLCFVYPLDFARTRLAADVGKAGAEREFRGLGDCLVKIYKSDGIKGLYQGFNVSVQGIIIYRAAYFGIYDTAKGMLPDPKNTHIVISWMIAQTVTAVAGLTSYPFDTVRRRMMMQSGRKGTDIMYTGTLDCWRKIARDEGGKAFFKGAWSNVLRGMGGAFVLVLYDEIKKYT
UniProt Q8N357: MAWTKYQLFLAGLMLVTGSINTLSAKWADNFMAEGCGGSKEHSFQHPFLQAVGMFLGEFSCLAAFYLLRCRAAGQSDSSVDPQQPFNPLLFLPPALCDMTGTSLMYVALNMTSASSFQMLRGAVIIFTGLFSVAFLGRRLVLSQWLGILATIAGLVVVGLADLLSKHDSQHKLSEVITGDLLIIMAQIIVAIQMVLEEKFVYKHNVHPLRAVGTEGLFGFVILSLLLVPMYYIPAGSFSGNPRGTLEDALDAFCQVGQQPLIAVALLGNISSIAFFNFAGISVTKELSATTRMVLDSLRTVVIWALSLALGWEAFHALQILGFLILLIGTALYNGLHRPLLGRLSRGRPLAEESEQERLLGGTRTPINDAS
UniProt Q02978: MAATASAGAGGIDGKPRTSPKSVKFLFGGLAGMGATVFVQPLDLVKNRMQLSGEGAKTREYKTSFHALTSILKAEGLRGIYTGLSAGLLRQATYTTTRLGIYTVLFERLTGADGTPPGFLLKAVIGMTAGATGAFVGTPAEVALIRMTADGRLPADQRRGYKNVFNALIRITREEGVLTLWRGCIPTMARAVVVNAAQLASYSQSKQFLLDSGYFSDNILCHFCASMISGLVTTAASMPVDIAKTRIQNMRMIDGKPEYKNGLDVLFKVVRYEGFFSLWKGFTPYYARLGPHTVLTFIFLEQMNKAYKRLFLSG
UniProt Q9NP59: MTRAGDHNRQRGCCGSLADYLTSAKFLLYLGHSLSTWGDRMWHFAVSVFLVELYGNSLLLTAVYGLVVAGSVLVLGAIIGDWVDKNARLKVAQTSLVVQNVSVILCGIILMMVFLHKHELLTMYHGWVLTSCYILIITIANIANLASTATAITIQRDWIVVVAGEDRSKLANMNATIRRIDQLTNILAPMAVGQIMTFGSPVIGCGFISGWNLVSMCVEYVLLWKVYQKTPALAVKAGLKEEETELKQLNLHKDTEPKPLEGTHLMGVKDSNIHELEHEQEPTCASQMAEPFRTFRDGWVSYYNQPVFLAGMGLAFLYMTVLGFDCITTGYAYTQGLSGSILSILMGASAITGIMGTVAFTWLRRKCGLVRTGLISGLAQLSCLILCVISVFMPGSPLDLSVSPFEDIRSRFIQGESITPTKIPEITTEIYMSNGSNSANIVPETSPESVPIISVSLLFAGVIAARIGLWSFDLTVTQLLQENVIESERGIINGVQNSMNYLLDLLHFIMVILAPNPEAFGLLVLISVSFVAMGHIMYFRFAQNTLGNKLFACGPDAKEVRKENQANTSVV
UniProt Q9ULF5: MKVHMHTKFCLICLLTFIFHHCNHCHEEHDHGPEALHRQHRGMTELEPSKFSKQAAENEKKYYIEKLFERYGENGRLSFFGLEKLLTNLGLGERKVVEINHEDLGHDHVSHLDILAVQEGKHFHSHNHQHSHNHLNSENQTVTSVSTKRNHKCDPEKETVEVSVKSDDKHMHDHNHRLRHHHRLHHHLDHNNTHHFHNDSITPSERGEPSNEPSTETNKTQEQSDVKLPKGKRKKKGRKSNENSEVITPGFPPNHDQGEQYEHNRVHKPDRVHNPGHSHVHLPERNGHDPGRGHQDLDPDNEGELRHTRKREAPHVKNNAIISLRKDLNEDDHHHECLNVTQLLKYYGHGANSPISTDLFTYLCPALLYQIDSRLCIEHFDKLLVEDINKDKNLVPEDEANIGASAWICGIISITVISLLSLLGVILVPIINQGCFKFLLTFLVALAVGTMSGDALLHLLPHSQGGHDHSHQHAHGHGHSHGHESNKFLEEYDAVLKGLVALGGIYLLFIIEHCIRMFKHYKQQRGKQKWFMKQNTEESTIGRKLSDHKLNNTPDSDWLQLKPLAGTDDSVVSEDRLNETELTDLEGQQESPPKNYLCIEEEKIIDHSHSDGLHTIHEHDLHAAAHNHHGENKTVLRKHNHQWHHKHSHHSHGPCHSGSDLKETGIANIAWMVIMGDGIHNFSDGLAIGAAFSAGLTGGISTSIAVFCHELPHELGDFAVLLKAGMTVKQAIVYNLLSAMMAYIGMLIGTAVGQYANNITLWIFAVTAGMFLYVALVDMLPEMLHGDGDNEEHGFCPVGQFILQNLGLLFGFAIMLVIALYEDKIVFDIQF
UniProt Q96AG3: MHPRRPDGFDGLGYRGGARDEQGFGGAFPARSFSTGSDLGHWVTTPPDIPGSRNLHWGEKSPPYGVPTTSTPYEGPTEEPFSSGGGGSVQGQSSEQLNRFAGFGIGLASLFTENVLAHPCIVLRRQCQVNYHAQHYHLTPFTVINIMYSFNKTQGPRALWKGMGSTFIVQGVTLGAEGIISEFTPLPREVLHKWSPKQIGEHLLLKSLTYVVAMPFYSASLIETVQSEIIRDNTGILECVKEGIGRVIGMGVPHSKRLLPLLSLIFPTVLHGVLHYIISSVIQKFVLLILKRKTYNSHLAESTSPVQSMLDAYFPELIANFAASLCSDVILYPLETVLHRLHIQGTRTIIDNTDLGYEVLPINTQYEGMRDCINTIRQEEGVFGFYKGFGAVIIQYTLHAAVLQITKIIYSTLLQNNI
UniProt Q6KCM7: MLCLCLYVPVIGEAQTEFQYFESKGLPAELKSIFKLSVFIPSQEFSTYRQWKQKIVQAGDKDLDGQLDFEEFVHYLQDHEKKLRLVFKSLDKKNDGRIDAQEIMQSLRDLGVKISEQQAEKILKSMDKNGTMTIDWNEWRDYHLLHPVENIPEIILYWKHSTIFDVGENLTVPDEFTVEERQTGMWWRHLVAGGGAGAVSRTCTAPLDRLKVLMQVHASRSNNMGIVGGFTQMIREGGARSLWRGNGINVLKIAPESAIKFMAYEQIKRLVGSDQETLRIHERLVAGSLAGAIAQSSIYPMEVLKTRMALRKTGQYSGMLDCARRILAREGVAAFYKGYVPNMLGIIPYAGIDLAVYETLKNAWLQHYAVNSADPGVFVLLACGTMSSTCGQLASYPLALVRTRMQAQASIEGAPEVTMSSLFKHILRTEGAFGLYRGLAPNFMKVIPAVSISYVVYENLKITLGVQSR
UniProt Q969S0: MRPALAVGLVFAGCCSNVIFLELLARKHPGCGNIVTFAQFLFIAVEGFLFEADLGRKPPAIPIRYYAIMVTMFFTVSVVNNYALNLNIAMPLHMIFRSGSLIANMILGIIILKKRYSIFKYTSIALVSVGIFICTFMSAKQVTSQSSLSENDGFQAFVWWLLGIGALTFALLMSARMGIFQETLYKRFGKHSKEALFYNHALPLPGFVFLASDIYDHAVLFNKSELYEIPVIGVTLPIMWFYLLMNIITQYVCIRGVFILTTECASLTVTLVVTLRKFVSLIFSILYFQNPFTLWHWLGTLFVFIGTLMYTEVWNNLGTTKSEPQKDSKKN
UniProt O00193: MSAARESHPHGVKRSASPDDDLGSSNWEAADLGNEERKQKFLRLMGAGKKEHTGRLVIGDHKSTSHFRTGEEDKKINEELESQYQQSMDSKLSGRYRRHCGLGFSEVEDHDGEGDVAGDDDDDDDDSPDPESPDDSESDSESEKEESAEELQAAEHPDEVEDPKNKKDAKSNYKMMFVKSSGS
UniProt Q01650: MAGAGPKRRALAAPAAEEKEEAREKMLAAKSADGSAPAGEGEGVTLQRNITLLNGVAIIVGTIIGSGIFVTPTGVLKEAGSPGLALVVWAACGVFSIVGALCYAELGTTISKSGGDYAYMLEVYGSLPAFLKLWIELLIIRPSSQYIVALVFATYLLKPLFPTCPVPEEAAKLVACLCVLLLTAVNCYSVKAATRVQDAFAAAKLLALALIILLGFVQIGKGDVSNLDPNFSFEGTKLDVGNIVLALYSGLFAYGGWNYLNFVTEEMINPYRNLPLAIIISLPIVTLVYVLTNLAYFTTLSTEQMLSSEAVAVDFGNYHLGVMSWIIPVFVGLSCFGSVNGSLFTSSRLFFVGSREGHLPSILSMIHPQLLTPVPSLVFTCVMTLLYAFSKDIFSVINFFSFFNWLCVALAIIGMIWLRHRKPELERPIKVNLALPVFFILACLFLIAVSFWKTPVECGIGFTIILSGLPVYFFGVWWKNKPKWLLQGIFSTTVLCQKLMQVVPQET
UniProt P48029: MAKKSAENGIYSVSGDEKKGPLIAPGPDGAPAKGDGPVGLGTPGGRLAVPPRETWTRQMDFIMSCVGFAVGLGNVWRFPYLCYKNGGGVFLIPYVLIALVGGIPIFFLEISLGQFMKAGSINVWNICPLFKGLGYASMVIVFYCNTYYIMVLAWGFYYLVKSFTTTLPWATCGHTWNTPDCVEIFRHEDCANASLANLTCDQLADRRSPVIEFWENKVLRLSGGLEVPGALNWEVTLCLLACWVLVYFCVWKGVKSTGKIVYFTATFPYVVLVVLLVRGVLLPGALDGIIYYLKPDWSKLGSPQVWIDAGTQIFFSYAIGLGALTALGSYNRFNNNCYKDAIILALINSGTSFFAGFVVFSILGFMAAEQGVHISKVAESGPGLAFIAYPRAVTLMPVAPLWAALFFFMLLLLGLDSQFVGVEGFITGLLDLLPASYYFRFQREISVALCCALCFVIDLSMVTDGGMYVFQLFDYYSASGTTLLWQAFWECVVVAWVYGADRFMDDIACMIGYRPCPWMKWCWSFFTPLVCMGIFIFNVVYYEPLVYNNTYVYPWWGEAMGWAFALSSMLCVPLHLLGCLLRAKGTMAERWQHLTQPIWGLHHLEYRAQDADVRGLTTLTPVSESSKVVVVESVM
UniProt Q8IXU6: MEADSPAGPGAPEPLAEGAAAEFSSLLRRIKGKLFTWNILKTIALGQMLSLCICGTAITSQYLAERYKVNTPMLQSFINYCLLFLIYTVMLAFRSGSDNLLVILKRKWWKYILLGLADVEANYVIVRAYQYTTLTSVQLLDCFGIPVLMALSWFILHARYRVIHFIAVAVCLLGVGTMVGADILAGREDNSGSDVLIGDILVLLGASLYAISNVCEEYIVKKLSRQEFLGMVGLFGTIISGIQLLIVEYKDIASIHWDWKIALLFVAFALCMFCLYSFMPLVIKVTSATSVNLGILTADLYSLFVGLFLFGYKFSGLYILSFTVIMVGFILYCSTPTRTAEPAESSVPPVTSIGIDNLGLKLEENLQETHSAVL

The other results are listed elsewhere or left out.

Compound in one test: NC(=O)Nc1cc(-c2cccc(F)c2)sc1C(=O)N[C@H]1CCCNC1
Nature of the test: log2 fold change, soluble protein after heating vs DMSO (PISA); higher = thermal stabilisation; K562 lysate, 10 uM; active = over 0.2 and 3.5 SD of the protein, either way, in both replicates (recomputed). Put shortly: (§1)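 Quantification was by TMTpro 16plex LC-MS/MS with equalised channel sums, applied to the supernatant after 21,000xg for 90 min. Samples were crude K562 extract at 1 mg/mL protein in PBS pH 7.4 with 1 mM MgCl2, treated with 10 μM compound for 30 min, heated for 3 min across 48°C-58°C, pooled and brought to 0.5% NP-40 at 4°C. Values are log-two fold changes in thermal stability relative to solvent controls, from duplicates.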
Regarding SLC39A7 (UniProt Q92504), the log2 fold change is inactive: -0.021.

As to SLC38A9 (UniProt Q8NBW4), the log2 fold change was inactive: 0.

For SLU7 (UniProt O95391), the log2 fold change is inactive: 0.086.

Regarding SLC30A6 isoform 2 (UniProt Q6NXT4), the log2 fold change was inactive: 0.093.

As for SLC25A24 (UniProt Q6NUK1), the log2 fold change was inactive: -0.017.

SLC3A2 isoform 3 (UniProt P08195): the log2 fold change is inactive: -0.006.

Consider SLC38A1 (UniProt Q9H2H9), for which the log2 fold change was inactive: -0.015.

Take SLC4A1AP (UniProt Q9BWU0): the log2 fold change was inactive: -0.021.

For the target SLC25A5 (UniProt P05141), the log2 fold change was inactive: 0.01.

On to SLC35F6 (UniProt Q8N357), for which the log2 fold change is inactive: 0.01.

SLC25A11 (UniProt Q02978): the log2 fold change was inactive: 0.014.

Consider SLC40A1 (UniProt Q9NP59), for which the log2 fold change is inactive: 0.167.

For the target SLC39A8 (UniProt Q9C0K1), the log2 fold change was inactive: -0.008.

As to SLC2A3 (UniProt P11169), the log2 fold change is inactive: 0.014.

On to SLC66A1 (UniProt Q6ZP29), for which the log2 fold change was inactive: 0.067.

On to SMAD5 (UniProt Q99717), for which the log2 fold change was inactive: -0.023.

SLC33A1 (UniProt O00400): the log2 fold change was inactive: 0.018.

On to SLC25A33 (UniProt Q9BSK2), for which the log2 fold change is inactive: 0.023.

For SLC25A22 (UniProt Q9H936), the log2 fold change is inactive: 0.009.

Take SLC35C1 (UniProt Q96A29): the log2 fold change is inactive: 0.15.

On to SLC39A10 (UniProt Q9ULF5), for which the log2 fold change is inactive: 0.003.

SLC25A46 (UniProt Q96AG3): the log2 fold change was inactive: -0.011.

Regarding SLC4A7 isoform 7 (UniProt Q9Y6M7), the log2 fold change was inactive: 0.01.

On to SLC25A25 isoform 3 (UniProt Q6KCM7), for which the log2 fold change is inactive: 0.021.

Consider SLC35B4 (UniProt Q969S0), for which the log2 fold change was inactive: -0.03.

For SLC9A8 isoform 2 (UniProt Q9Y2E8), the log2 fold change was inactive: 0.106.

For SLC39A14 (UniProt Q15043), the log2 fold change is inactive: -0.004.

SMAP (UniProt O00193): the log2 fold change is inactive: -0.071.

Consider SLC25A51 (UniProt Q9H1U9), for which the log2 fold change is inactive: -0.008.

On to SLC7A5 (UniProt Q01650), for which the log2 fold change was inactive: 0.

On to SLC38A10 (UniProt Q9HBR0), for which the log2 fold change is inactive: -0.039.

As to SLC25A40 (UniProt Q8TBP6), the log2 fold change is inactive: -0.056.

SLC6A8 isoform 2 (UniProt P48029): the log2 fold change was inactive: 0.193.

Compound in the next test: NC(=O)c1cnc(N[C@@H]2CCCC[C@@H]2N)nc1Nc1cccc(-n2nccn2)c1
The description is as above. Put shortly: as §1
SLC39A7 (UniProt Q92504): the log2 fold change was inactive: 0.009.

As for SLC38A9 (UniProt Q8NBW4), the log2 fold change is inactive: -0.059.

As to SLC30A6 isoform 2 (UniProt Q6NXT4), the log2 fold change is inactive: 0.012.

As to SLC25A24 (UniProt Q6NUK1), the log2 fold change is inactive: -0.001.

With SLC3A2 isoform 3 (UniProt P08195), the log2 fold change is inactive: -0.01.

For SLC38A1 (UniProt Q9H2H9), the log2 fold change is inactive: 0.001.

As to SLC4A1AP (UniProt Q9BWU0), the log2 fold change is inactive: -0.012.

On to SLC25A5 (UniProt P05141), for which the log2 fold change was inactive: -0.01.

With SLC35F6 (UniProt Q8N357), the log2 fold change is inactive: 0.022.

As for SLC25A11 (UniProt Q02978), the log2 fold change was inactive: 0.

As to SLC66A2 (UniProt Q8N2U9), the log2 fold change was inactive: 0.103.

SLC40A1 (UniProt Q9NP59): the log2 fold change is inactive: -0.035.

On to SLC39A8 (UniProt Q9C0K1), for which the log2 fold change is inactive: 0.055.

As for SLC3A2 (UniProt F5GZS6), the log2 fold change was inactive: -0.001.

In the case of SLC2A3 (UniProt P11169), the log2 fold change was inactive: 0.002.

Turning to SLC66A1 (UniProt Q6ZP29), the log2 fold change is inactive: 0.154.

As to SLC48A1 (UniProt Q6P1K1), the log2 fold change is inactive: -0.116.

SLC33A1 (UniProt O00400): the log2 fold change was inactive: -0.001.

On to SLC25A33 (UniProt Q9BSK2), for which the log2 fold change was inactive: -0.072.

In the case of SLC25A22 (UniProt Q9H936), the log2 fold change was inactive: -0.002.

Turning to SLC35C1 (UniProt Q96A29), the log2 fold change was inactive: -0.104.

In the case of SLC39A10 (UniProt Q9ULF5), the log2 fold change is inactive: 0.02.

In the case of SLC25A46 (UniProt Q96AG3), the log2 fold change is inactive: 0.029.

On to SLC4A7 isoform 7 (UniProt Q9Y6M7), for which the log2 fold change was inactive: -0.012.

In the case of SLC25A25 isoform 3 (UniProt Q6KCM7), the log2 fold change was inactive: 0.007.

On to SLC35F2 (UniProt Q8IXU6), for which the log2 fold change is inactive: -0.02.

SLC35B4 (UniProt Q969S0): the log2 fold change was inactive: 0.007.

Regarding SLC9A8 isoform 2 (UniProt Q9Y2E8), the log2 fold change is inactive: 0.058.

For the target SLC39A14 (UniProt Q15043), the log2 fold change was inactive: 0.027.

With SMAP (UniProt O00193), the log2 fold change was inactive: 0.036.

As for SLC25A51 (UniProt Q9H1U9), the log2 fold change was inactive: -0.054.

Turning to SLC7A5 (UniProt Q01650), the log2 fold change was inactive: -0.029.

With SLC38A10 (UniProt Q9HBR0), the log2 fold change is inactive: 0.01.

As to SLC25A40 (UniProt Q8TBP6), the log2 fold change was inactive: -0.035.

As to SLC6A8 isoform 2 (UniProt P48029), the log2 fold change is inactive: -0.058.
